From PMC12623955
Results are given in words; binding and its absence hold for the method and conditions named. Binding seen in cells or lysates may run through a third protein. A result given as binding can be weak or reduced; the word gives no strength.

T1: Heme oxygenase 1 (HMOX1) (rat (endogenous in PC12)) (UniProt P06762)
T1 sequence: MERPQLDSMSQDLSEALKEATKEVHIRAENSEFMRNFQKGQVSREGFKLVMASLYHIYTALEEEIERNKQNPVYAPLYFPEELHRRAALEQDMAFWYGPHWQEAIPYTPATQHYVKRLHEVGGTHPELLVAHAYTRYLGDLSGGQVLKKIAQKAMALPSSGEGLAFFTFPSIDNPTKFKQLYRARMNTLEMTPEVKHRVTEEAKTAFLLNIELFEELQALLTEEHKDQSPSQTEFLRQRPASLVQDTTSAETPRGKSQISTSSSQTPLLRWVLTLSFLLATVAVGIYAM

B1: Heme oxygenase 1 (HMOX1) (enzyme, UniProt P06762 1-289)
chain: T1 sequence

Tests used:
[1] = biological target: T1, Heme oxygenase 1 (HMOX1) (rat (endogenous in PC12)); experiment: co-IP; endogenous proteins in PC12 cell lysates, under physiological conditions or after OGD/R (OGD: 6 h; R: 24 h); IP with anti-HMOX1, anti-BNIP3 or anti-IgG and protein A/G magnetic beads, overnight at 4 °C; western blotting
[2] = biological target: BNIP3 (rat (endogenous in PC12)); experiment: as above

| Molecule | binding [1] | binding [2] |
| --- | --- | --- |
| BNIP3 (rat (endogenous in PC12)) | binds | – |
| B1 | – | binds |
